Test results taken from publication PMC7496117, “A zinc finger protein BBX19 interacts with ABF3 to affect drought tolerance negatively in chrysanthemum”.
No constants are given. Whether binding was seen depends on the method and setting. For some assays here: Binding seen in cells or lysates may run through a third protein. For some assays here: Sequences can lack the tags named with a protein.

B1: AtABF3 (BiFC construct) (protein, UniProt Q9M7Q3 1-454)
chain: MGSRLNFKSFVDGVSEQQPTVGTSLPLTRQNSVFSLTFDEFQNSWGGGIGKDFGSMNMDELLKNIWTAEESHSMMGNNTSYTNISNGNSGNTVINGGGNNIGGLAVGVGGESGGFFTGGSLQRQGSLTLPRTISQKRVDDVWKELMKEDDIGNGVVNGGTSGIPQRQQTLGEMTLEEFLVRAGVVREEPQPVESVTNFNGGFYGFGSNGGLGTASNGFVANQPQDLSGNGVAVRQDLLTAQTQPLQMQQPQMVQQPQMVQQPQQLIQTQERPFPKQTTIAFSNTVDVVNRSQPATQCQEVKPSILGIHNHPMNNNLLQAVDFKTGVTVAAVSPGSQMSPDLTPKSALDASLSPVPYMFGRVRKTGAVLEKVIERRQKRMIKNRESAARSRARKQAYTMELEAEIAQLKELNEELQKKQVEIMEKQKNQLLEPLRQPWGMGCKRQCLRRTLTGPW
B2: AtABF3 (AD fusion) (protein, UniProt Q9M7Q3 1-454)
chain: B1 chain

Columns and labels:
[1] = molecular target: T1, AtBBX19 (BiFC construct) (Arabidopsis thaliana) (UniProt C0SVM5); experiment: split reporter; BiFC with YFP^N and YFP^C fusions co-infiltrated by A. tumefaciens GV3101 into N. benthamiana leaves; YFP fluorescence by confocal microscopy 60 h after infiltration
T1 sequence: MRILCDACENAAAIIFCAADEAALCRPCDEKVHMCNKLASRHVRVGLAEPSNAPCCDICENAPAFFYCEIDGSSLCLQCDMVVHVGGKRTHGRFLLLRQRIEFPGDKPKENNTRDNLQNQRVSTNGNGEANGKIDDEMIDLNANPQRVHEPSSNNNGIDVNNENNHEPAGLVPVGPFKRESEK

[2] = molecular target: T2, AtBBX19 (BD fusion) (Arabidopsis thaliana) (UniProt C0SVM5); experiment: two-hybrid; Matchmaker GAL4 system, yeast strain Y2HGold; bait in pGBKT7 (BD), prey in pGADT7 (AD); growth on SD/-Trp-Leu, then spot assay on SD/-Trp-Leu-His-Ade
T2 sequence: T1 sequence

Row | Binder | binding [1] | binding [2]
1 | B1 | no binding | –
2 | B2 | – | no binding
